Experimental data: PubChem BioAssay AID504764 (Drosophila RNAi Screening Center, 2011)
The deposit covers about 22,000 reagents; this is a random part of those with a known target gene and a result. Of all reagents, 403 (1.9%) are marked active. 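Unnormalised raw counts per well; ratio z-scores behind the hit calls and whether each hit raises or lowers signal are not deposited.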 The numbers tell different reagents against one gene apart. A plus sign joins genes that one reagent is predicted to hit. Not stated in the record: the amount of reagent.

Aim: 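Genes whose knock-down alters Notch-dependent transcription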 (primary screen)
System: Drosophila Kc167 cells
Knock-down reagent: long dsRNA against Drosophila genes
Time to read-out: about 5 days (4 days dsRNA, then 24 h after transfection)
Challenge: transfection of constitutively active membrane-tethered Notch lacking the extracellular domain, read 24 h later
Detection: 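Light from a Notch-responsive E(spl)m3 luciferase reporter under active Notch, with control-promoter and no-Notch reporter wells to normalise; raw counts from paired wells a and b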
Direction: induced reporter light, run 1, well a and induced reporter light, run 1, well b: higher = more light from the Notch target reporter with active Notch; control promoter light, run 1, well a and control promoter light, run 1, well b: higher = more light from the viral control promoter (cell number, transfection, viability); uninduced reporter light, run 1, well a: higher = more light from the Notch target reporter without active Notch
Active means: 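Wells with low control signal or poorly matching duplicates excluded; duplicates averaged; per source plate, z beyond ±2 for induced/control log2 ratio or beyond ±1.8 for induced/uninduced marks a hit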
Calls: active = modifier hit (raised or lowered Notch signal); inactive = not a hit

target gene	dsRNA no.	induced reporter light, run 1, well a	induced reporter light, run 1, well b	control promoter light, run 1, well a	control promoter light, run 1, well b	uninduced reporter light, run 1, well a	call
Tcs3	1	2.02e5	1.90e5	2.28e5	1.61e5	8725	inactive
CG5087	1	2.00e5	2.59e5	3.02e5	2.46e5	11635	inactive
CG15219	1	56725	59305	51110	61480	4380	inactive
CG10748	1	1.37e5	1.49e5	1.73e5	1.26e5	6965	inactive
sfl	1	1.68e5	1.74e5	1.37e5	1.42e5	13300	inactive
sfl	2	1.41e5	1.41e5	1.59e5	1.77e5	13085	inactive
Cyt-b5	1	1.96e5	2.03e5	1.80e5	1.59e5	17265	inactive
Pcyt2	1	1.01e5	91305	1.72e5	1.65e5	7338	inactive
CG10814	1	1.54e5	1.80e5	1.50e5	1.58e5	15745	inactive
OtopLa	1	2.20e5	1.27e5	2.50e5	2.74e5	12410	inactive
OtopLa	2	1.76e5	1.96e5	4.20e5	3.71e5	12070	inactive
CG40045	1	76945	67480	86415	70155	7695	inactive
slmo + CG34179	1	53905	68265	55020	57365	4935	inactive
CG6403	1	1.47e5	1.22e5	1.98e5	2.07e5	13780	inactive
mRpL43	1	2.41e5	2.08e5	1.80e5	1.99e5	16035	inactive
mRpL43	2						inactive
CG32814	1	36520	56100	59585	75025	4935	inactive

Continued, starting with the last 7 of the part before.
target gene	dsRNA no.	induced reporter light, run 1, well a	induced reporter light, run 1, well b	control promoter light, run 1, well a	control promoter light, run 1, well b	uninduced reporter light, run 1, well a	call
OtopLa	2	1.76e5	1.96e5	4.20e5	3.71e5	12070	inactive
CG40045	1	76945	67480	86415	70155	7695	inactive
slmo + CG34179	1	53905	68265	55020	57365	4935	inactive
CG6403	1	1.47e5	1.22e5	1.98e5	2.07e5	13780	inactive
mRpL43	1	2.41e5	2.08e5	1.80e5	1.99e5	16035	inactive
mRpL43	2						inactive
CG32814	1	36520	56100	59585	75025	4935	inactive
RtGEF	1	56345	46525	1.00e5	91565	2935	inactive
CG11629	1	49325	56680	55425	45300	5042	inactive
ich	1	1.61e5	1.23e5	1.57e5	1.71e5	10625	inactive
ich	2	40120	52050	47455	28515	4492	inactive
GILT2	1	1.81e5	1.85e5	2.54e5	2.33e5	15810	inactive
CG5107	1	2.78e5	2.60e5	2.62e5	2.40e5	15290	active
RhoGAPp190	1	1.18e5	92155	88505	1.04e5	15038	inactive
RhoGAPp190	2	1.30e5	96770	92255	46720	8665	inactive
Pex1	1	77050	75510	62825	76390	6130	inactive
caz	1	40500	40345	32075	31695	2650	inactive
CG5342	1	87005	94390	99515	66675	7325	inactive
Dic1	1	1.31e5	1.46e5	1.21e5	1.12e5	11870	inactive
Lim1	1	2.08e5	1.90e5	2.93e5	2.77e5	16545	inactive
Lim1	2	1.85e5	1.72e5	3.23e5	3.79e5	12405	inactive
CG7786	1	1.39e5	1.25e5	2.03e5	1.42e5	8880	inactive
CG1635	1	1.95e5	2.44e5	2.66e5	2.24e5	14840	inactive
Cap-G	1	83395	1.05e5	1.19e5	1.07e5	10045	inactive
Cap-G	2	1.15e5	1.33e5	1.49e5	1.33e5	10770	inactive
GstT4	1	1.60e5	1.84e5	2.57e5	1.88e5	14475	inactive
CG13252	1	1.76e5	1.29e5	1.44e5	1.20e5	10320	inactive
CG7655	1	2.12e5	2.16e5	2.20e5	2.52e5	18015	inactive
CG7903	1	1.24e5	1.12e5	1.72e5	1.50e5	9295	inactive
TBC1d7 + mRpS24	1	1.63e5	1.55e5	1.86e5	1.74e5	13315	inactive
Cad89D	1	2.15e5	2.22e5	2.59e5	2.62e5	23555	inactive
CG12460 (retired record)	1	72230	76470	64915	89395	9535	inactive
Ero1L	1	1.11e5	1.55e5	91595	31475	12750	inactive
Hexo1	1	68485	2.34e5	2.11e5	2.24e5	10190	inactive
CG8852	1	1.66e5	1.30e5	1.79e5	1.64e5	10155	inactive
CNT1 + CG13742	1	2.30e5	2.36e5	2.76e5	2.67e5	18660	inactive
Pif1A	1	1.32e5	1.47e5	1.27e5	1.58e5	11442	inactive
Pif1A	2	92040	72320	86330	60285	6500	inactive
CG11322	1	56360	51125	65185	49830	3825	inactive
Culd	1	1.14e5	98580	94845	44095	10970	inactive
